Assay results: the supplement of paper PMC12819154, “High-throughput peptide-centric local stability assay extends protein–ligand identification to membrane proteins, tissues and bacteria” (Nature Structural & Molecular Biology, 2025)
This is one part of the list. Most entries show no effect beyond the scatter of the controls.

Sequences of proteins named here, by UniProt entry; tags and fusion partners are left off. A change or cut given only in a name is not applied to a line headed by its entry.
UniProt P19221, whole entry: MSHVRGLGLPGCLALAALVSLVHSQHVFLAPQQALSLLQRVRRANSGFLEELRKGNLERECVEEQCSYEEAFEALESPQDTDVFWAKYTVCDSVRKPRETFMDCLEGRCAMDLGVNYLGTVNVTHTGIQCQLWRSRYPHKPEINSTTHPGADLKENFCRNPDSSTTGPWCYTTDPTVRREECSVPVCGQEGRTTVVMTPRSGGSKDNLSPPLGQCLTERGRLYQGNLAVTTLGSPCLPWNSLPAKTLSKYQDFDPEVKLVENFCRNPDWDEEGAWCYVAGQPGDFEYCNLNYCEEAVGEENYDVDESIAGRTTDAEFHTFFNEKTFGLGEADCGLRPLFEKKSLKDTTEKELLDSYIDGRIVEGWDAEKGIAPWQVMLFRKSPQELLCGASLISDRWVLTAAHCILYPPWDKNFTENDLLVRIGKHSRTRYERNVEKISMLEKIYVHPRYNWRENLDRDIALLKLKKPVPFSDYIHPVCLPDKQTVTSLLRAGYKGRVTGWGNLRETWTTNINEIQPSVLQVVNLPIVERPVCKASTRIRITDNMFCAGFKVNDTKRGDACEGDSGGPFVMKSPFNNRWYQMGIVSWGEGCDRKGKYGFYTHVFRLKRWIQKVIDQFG
UniProt P32848, whole entry: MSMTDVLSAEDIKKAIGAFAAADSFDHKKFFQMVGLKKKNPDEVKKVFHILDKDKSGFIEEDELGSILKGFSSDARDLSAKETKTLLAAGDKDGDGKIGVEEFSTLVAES
UniProt P28843: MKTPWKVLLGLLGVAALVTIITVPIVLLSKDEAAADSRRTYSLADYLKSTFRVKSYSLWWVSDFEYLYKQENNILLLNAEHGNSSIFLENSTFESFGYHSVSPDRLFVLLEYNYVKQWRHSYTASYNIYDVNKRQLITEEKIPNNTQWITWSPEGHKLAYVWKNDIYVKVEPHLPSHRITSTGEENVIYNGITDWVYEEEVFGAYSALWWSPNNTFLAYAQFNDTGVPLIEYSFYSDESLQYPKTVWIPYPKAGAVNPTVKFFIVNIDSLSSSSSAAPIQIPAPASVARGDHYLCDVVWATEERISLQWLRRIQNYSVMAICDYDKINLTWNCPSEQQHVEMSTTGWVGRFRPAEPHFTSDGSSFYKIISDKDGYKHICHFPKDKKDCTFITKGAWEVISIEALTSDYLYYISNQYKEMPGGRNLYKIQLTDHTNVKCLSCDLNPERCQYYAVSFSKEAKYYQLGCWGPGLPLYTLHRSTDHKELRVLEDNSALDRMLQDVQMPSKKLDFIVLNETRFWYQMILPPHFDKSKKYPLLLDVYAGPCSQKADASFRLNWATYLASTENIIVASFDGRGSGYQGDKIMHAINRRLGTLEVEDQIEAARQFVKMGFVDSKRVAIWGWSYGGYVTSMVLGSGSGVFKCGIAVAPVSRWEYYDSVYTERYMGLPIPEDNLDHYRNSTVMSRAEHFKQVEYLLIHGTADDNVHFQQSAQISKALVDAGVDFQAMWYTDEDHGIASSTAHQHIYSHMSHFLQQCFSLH
UniProt P17742, whole entry: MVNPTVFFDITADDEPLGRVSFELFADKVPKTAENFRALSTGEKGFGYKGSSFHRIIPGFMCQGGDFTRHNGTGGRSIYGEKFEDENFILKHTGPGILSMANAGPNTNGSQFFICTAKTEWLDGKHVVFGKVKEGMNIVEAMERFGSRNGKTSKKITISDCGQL
UniProt P28028, whole entry: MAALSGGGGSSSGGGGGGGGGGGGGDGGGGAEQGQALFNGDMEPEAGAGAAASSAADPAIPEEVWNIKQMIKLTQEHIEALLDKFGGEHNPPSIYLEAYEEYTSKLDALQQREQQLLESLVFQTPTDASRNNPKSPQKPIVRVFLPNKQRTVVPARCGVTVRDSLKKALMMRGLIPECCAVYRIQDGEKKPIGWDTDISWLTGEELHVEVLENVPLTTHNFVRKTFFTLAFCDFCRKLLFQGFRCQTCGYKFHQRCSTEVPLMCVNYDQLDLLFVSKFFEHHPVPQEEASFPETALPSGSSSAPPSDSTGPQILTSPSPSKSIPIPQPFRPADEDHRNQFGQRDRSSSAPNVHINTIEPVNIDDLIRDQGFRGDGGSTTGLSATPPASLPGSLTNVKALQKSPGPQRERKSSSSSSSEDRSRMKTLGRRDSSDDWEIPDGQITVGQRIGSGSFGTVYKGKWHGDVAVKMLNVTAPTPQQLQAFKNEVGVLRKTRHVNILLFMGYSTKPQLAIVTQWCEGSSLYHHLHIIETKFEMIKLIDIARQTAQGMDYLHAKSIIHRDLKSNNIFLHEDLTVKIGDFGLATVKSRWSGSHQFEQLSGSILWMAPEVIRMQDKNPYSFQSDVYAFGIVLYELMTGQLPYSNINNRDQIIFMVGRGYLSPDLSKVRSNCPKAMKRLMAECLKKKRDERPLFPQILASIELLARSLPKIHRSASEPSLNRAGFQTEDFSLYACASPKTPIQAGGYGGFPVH
UniProt P31786: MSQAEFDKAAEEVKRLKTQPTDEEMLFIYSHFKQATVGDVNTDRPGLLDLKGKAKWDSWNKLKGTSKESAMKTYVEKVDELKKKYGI
UniProt P28738: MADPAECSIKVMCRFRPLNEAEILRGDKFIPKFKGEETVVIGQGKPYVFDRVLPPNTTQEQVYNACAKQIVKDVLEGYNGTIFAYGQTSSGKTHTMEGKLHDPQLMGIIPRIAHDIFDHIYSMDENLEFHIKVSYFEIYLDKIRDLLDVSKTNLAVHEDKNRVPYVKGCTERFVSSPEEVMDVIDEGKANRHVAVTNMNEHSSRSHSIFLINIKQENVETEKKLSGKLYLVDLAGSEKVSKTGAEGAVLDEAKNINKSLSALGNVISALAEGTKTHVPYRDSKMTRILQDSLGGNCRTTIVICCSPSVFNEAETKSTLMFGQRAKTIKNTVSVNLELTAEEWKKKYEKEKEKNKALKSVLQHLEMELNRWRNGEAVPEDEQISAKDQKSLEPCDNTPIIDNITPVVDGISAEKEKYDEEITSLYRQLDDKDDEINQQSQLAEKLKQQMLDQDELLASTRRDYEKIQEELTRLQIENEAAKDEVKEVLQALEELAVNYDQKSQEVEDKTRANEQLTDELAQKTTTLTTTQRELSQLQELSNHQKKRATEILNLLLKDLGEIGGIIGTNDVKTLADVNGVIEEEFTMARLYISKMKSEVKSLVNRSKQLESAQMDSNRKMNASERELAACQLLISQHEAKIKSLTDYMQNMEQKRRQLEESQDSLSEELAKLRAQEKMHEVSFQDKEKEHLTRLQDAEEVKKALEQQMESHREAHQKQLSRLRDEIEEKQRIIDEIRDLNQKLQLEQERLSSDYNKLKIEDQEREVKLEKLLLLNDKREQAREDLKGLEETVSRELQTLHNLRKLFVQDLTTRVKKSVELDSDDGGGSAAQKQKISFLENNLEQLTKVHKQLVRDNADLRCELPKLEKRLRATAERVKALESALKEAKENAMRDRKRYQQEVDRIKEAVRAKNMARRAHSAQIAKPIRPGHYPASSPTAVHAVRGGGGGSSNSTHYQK
UniProt P23116, whole entry: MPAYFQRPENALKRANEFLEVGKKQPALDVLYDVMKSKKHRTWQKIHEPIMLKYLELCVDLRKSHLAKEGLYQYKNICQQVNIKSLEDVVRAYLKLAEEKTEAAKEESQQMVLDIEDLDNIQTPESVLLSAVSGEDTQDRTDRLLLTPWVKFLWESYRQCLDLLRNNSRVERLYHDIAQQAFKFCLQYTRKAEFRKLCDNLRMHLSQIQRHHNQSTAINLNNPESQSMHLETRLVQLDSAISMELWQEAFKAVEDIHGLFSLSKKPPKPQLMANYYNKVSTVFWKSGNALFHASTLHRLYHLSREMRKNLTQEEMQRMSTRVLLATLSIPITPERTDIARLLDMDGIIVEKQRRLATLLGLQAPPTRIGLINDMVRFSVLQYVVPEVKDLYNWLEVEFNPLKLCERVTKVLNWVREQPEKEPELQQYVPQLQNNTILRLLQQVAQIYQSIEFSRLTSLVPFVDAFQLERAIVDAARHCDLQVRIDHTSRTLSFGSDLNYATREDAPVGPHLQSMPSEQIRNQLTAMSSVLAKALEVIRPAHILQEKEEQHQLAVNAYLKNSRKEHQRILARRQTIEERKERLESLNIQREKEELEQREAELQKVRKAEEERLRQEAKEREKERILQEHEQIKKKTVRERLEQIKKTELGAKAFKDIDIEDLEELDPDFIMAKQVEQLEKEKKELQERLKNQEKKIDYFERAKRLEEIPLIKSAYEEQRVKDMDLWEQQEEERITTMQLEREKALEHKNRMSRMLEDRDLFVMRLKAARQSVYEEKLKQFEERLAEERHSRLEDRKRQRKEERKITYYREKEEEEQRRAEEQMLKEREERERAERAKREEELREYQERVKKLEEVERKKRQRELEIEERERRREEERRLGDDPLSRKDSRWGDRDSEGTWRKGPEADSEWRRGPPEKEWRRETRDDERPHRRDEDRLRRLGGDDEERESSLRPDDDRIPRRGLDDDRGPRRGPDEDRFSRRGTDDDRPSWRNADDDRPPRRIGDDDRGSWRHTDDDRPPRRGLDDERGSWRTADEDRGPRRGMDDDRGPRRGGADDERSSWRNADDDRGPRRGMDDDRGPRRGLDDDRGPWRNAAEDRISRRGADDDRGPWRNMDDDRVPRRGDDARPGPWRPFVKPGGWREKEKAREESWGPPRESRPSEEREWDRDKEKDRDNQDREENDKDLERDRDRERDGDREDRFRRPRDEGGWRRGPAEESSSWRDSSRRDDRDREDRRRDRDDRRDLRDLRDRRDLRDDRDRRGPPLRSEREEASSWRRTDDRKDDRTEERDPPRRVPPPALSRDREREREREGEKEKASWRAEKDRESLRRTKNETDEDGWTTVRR
UniProt P24527: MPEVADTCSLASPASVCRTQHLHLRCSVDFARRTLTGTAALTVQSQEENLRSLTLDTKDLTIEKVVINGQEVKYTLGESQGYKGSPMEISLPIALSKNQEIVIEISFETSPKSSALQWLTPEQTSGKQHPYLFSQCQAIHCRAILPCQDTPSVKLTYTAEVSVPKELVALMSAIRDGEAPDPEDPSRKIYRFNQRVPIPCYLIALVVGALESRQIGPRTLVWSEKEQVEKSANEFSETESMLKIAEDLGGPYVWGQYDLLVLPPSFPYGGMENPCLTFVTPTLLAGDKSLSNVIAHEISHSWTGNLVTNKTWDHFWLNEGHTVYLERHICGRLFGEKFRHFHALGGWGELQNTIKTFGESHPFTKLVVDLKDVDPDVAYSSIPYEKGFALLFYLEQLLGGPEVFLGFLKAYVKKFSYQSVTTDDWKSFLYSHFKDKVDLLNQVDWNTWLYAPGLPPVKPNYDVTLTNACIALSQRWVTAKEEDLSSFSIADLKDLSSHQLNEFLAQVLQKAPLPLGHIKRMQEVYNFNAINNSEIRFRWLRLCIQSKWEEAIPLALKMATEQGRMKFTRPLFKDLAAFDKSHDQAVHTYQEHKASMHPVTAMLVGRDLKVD
UniProt P17879, whole entry: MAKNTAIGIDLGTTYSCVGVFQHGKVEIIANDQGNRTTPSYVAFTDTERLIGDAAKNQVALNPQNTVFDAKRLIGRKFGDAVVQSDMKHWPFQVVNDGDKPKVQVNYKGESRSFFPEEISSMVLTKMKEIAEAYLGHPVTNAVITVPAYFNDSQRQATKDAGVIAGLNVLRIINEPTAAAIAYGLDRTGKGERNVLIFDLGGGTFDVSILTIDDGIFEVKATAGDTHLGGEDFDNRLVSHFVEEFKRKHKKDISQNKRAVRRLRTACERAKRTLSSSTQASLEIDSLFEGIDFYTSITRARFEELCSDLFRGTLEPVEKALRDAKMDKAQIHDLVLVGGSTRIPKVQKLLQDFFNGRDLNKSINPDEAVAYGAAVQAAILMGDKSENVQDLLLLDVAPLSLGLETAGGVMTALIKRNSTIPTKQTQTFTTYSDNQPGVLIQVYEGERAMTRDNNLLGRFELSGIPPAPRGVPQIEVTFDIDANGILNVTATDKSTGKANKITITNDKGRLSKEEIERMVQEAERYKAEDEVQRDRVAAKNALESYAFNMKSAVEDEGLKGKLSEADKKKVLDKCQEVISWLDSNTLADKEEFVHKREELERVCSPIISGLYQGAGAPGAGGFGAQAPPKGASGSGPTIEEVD
UniProt P24547, whole entry, looked up: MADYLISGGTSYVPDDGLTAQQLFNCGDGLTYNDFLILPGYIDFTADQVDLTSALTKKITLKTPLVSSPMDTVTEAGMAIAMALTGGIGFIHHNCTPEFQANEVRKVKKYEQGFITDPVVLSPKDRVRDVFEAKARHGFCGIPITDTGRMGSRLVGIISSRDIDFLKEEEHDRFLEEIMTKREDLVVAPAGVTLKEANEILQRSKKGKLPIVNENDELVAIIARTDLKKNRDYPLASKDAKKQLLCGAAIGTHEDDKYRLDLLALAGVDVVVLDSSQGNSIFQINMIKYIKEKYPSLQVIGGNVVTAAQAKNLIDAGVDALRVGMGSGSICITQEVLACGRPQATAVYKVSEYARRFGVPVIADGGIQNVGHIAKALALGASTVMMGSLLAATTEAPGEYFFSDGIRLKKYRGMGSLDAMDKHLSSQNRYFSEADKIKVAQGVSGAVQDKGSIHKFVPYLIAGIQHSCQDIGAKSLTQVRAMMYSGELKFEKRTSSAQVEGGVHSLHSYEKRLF

Compound: CN[C@@H]1C[C@H]2O[C@@](C)([C@@H]1OC)n1c3ccccc3c3c4c(c5c6ccccc6n2c5c31)C(=O)NC4 [staurosporine]
Experiment: log2 fold change of tryptic peptide abundance, ligand vs vehicle (limited proteolysis) (log2 ratio); higher = more trypsin-susceptible (destabilized)
Conditions: ligand concentration: 20 uM; sample: mouse liver crude lysate; replicate design: treated separately

UniProt P17563 (peptide sequence: VIEASEIQAK, peptide start residue: 121)
log2 fold change: 0.142

UniProt P23249 (peptide sequence: IANLAFVTK, peptide start residue: 63)
log2 fold change: 0.367

UniProt P19221 (peptide sequence: RGDACEGDSGGPFVMK, peptide start residue: 557)
log2 fold change: -0.889

UniProt P28700 (peptide sequence: VLTELVSK, peptide start residue: 354)
log2 fold change: 0.291

UniProt P32848 (peptide sequence: TLLAAGDKDGDGK, peptide start residue: 85)
log2 fold change: 0.174

UniProt P28843 (peptide sequence: VLEDNSALDR, peptide start residue: 487)
log2 fold change: -1.12

UniProt P20918 (peptide sequence: KQLAAGGVSDCLAKCEGETDFVCR, peptide start residue: 39)
log2 fold change: -0.463

UniProt P28740 (peptide sequence: FSLIDLAGNER, peptide start residue: 452)
log2 fold change: 0.143

UniProt P29037 (peptide sequence: TTALIFSSGK, peptide start residue: 186)
log2 fold change: -0.0668

UniProt P18468 (peptide sequence: FDSDVGEFR, peptide start residue: 35)
log2 fold change: -0.235

UniProt P26262 (peptide sequence: ATIPLVPNEECQKK, peptide start residue: 538)
log2 fold change: 0.206

UniProt P19973 (peptide sequence: KSQPTLPISTIDER, peptide start residue: 208)
log2 fold change: -0.319

UniProt P27782 (peptide sequence: KPLNAFMLYMK, peptide start residue: 329)
log2 fold change: 0.576

UniProt P32883 (peptide sequence: VKDSEDVPMVLVGNKCDLPSR, peptide start residue: 103)
log2 fold change: -0.51

UniProt P21180 (peptide sequence: SSSHHTLR, peptide start residue: 73)
log2 fold change: -0.613

UniProt P17742 (peptide sequence: EGMNIVEAMER, peptide start residue: 134)
log2 fold change: 0.284

UniProt P25446 (peptide sequence: IDEIMHDSIQDTAEQK, peptide start residue: 251)
log2 fold change: -0.247

UniProt P28028 (peptide sequence: NEVGVLRK, peptide start residue: 485)
log2 fold change: 0.468

UniProt P31786 (peptide sequence: WDSWNKLKGTSK, peptide start residue: 56)
log2 fold change: -0.468

UniProt P28738 (peptide sequence: ILQDSLGGNCR, peptide start residue: 285)
log2 fold change: 0.0983

UniProt P34927 (peptide sequence: TKDYQDFQHLDNDNDHHQLR, peptide start residue: 2)
log2 fold change: -0.0775

UniProt P23116 (peptide sequence: LLDMDGIIVEK, peptide start residue: 341)
log2 fold change: 0.166

UniProt P24527 (peptide sequence: TQHLHLR, peptide start residue: 19)
log2 fold change: -0.61

UniProt P17879 (peptide sequence: MDKAQIHDLVLVGGSTR, peptide start residue: 326)
log2 fold change: 0.615

UniProt P24547 (peptide sequence: FLEEIMTKR, peptide start residue: 174)
log2 fold change: 0.658

UniProt P25976 (peptide sequence: QWSQLSDK, peptide start residue: 233)
log2 fold change: -0.227

UniProt P35285 (peptide sequence: TVQYQNELHK, peptide start residue: 46)
log2 fold change: -0.271

UniProt P22893 (peptide sequence: RDPNQACCPSCR, peptide start residue: 235)
log2 fold change: -0.244

UniProt P23906 (peptide sequence: IFQIPWMHAAR, peptide start residue: 33)
log2 fold change: -0.142

UniProt P23589 (peptide sequence: HVGLLCATGPQR, peptide start residue: 15)
log2 fold change: 0.134

UniProt P35235 (peptide sequence: FDSLTDLVEHYKK, peptide start residue: 187)
log2 fold change: 0.484
